In the assay the target is T1, human Mp1 (human, UniProt P40238 26-491, limits assumed).
T1 construct: The analyses of section 1.6 used shMp1-FLAG and hMp1-Fc in ELISA, and CHO-human Mp1 and BaF3-human Mp1 cells; also called human Mpl; TPO receptor
T1 sequence (looked up): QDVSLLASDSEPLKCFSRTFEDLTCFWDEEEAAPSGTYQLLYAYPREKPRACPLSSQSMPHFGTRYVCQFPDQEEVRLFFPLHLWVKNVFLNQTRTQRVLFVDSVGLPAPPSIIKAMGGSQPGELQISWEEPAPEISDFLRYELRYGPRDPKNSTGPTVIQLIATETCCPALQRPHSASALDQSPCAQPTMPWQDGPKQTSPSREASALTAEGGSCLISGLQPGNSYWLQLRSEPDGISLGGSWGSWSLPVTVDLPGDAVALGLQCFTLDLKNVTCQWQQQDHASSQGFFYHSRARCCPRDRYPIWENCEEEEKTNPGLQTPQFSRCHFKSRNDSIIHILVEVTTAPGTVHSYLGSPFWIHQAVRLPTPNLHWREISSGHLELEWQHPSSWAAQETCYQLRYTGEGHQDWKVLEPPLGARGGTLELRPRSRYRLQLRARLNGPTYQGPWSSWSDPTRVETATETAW
The assay is described as follows: hybridoma supernatants; ELISA on shMp1-FLAG and hMp1-Fc, flow cytometry on CHO-human Mp1 cells, BaF3-human Mp1 proliferation. As for the experimental part: MRL/MpJUmmCrj-lpr/lpr mice (hereinafter abbreviated as “MRL/lpr mice”; purchased from Charles River, Japan) were immunized; the primary immunization was carried out at eight weeks of age. For every single mouse, an emulsion containing 100 μg of shMPL-FLAG combined with Freud's complete adjuvant (H37 Ra; Beckton Dickinson), was administered subcutaneously as the primary injection. As a booster injection, an emulsion containing shMPL-FLAG (50 μg per mouse) combined with Freud's incomplete adjuvant (Beckton Dickinson) was administered subcutaneously. Three mice which have been immunized six times in total were subjected to a final injection of shMPL-FLAG (50 μg per mouse) through the caudal vein. Cell fusion was achieved by mixing the mouse myeloma P3-X63Ag8U1 cells (P3U1; purchased from ATCC) and mouse splenocytes using polyethylene glycol 1500 (Roche Diagnostics). Hybridoma selection in HAT medium began the following day and culture supernatants were obtained. Screening was carried out by ELISA using immunoplates with immobilized shMp1-FLAG or hMp1-Fc, and by a cell proliferation assay of BaF3-hMp1. Positive clones were isolated as single clones by limiting dilution and then cultured on a large scale. The culture supernatants were collected. Anti-human Mp1 antibody-producing hybridomas, VB22B, VB16, VB140, and VB45B, were obtained by this method.
Background: ELISA stands for enzyme-linked immunosorbent assay.

Consider four molecules from patent publication US20080009038A1 (Chugai, published 2008).

Results are given in words; binding and its absence hold for the method and conditions named. Some binding calls cover weakened binding; strength is not graded here.

B1: anti-human Mp1 antibody TA136 (antibody, V domains shown)
VH: DVQLQESGPGLVKPSQSLSLTCTVTGYSITSDYAWSWIRQLPGNKLEWMGYITYSGYSIYNPSLKSRISISRDTSKNQLFLQLNSVTTEDTATYYCVGGYDNMDYWGQGTSVTVSS
VL: QIVLTQSPAIMSASPGEKVTLTCSASSSVSSSHLYWYQQKPGSSPKLWIYSTSNLASGVPARFSGSGSGTSYSLTISNMETEDAASYFCHQWSSYPWTFGGGTKLEIK
Take B1: the binding result is “binds”.

B2: anti-human Mp1 antibody VB16 (antibody, V domains shown)
VH: QVQLQQPGTELVRPGASVKLSCKASGYTFTDYWVNWVKQRPGRGLEWIGRIHPYDSETHYNQKFKNKATLTVDKSSSTAYIQLSSLTSEDSAVYYCASGGWFASWGQGTLVTVSA
VL: DIVMTQAAPSVPVTPGESVSISCRSSKSLLYSNGNTYLYWFLQRPGQSPQLLIYRMSNLASGVPDRFSGSGSGTAFTLTISSVEAEDVGVYYCMQHLEYPYTFGSGTKLEIK
As to B2, the binding result is “binds”.

B3: anti-human Mp1 antibody VB45B (antibody, V domains shown)
VH: QVQLQQSGPELVKPGASVKISCKASGYAFSSSWMNWVKQRPGKGLEWIGRIYPGDGETNNNGKFKGKATLTADKSSTTAYMQLSSLTSEDSAVYFCARGYGDYSFAYWGQGTLVTVSA
VL: DIVMTQAAPSVPVTPGESVSISCRSSKSLLHSNGNTYLYWFLQRPGQSPQLLIYRMSNLASGVPDRFSGSGSGAAFTLRISRVEAEDVGVYYCMQHLEYPYTFGSGTKLEIK
For B3, the binding result is “binds”.

B4: anti-human Mp1 antibody VB140 (antibody, V domains shown)
VH: QVQLQQSGPELVKPGASVKISCRAFGYAFSNSWMNWVKQRPGKGLEWIGRIYPGDGETNNNGKFKGKATLTADKSSSTAYMQLSSLTSEDSAVYFCARGYGDYSFAYWGQGTLVTVSA
VL: DIVMTQAAPSVPVTPGESVSISCRSSKSLLHSNGNTYLYWFLQRPGQSPQLLIYRMSNLASGVPDRFSGSGSGAAFTLRISRVEAEDVGVYYCMQHLEYPYTFGSGTKLEIK
Consider B4, for which the binding result is reported as “binds”.
